The list shows a part of the results.
compound: CC1Cc2ccccc2N1C(=O)C1CCCN(C1)C(=O)CCl (mixture of isomers) [TRIM25 ligand 11 (diastereomer mixture)]; assay: probe-labelled cysteine peptide fold change vs DMSO (competition) (log2 fold change); higher = less target engagement (more negative = stronger competition); settings: 10 µM; THP-1; incubation time: 4 h
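Note: competitive chemoproteomic profiling in live THP-1 cells with an iodoacetamide desthiobiotin (IA-DTB) probe, comparing probe-labelled peptide intensities in compound-treated cells against DMSO-treated controls.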

By UniProt entry, the sequences of proteins in these tests, tags left out. Where a name states a change or a piece, a line headed by the entry shows the natural chain unless it says otherwise.
UniProt Q99460, whole entry, looked up: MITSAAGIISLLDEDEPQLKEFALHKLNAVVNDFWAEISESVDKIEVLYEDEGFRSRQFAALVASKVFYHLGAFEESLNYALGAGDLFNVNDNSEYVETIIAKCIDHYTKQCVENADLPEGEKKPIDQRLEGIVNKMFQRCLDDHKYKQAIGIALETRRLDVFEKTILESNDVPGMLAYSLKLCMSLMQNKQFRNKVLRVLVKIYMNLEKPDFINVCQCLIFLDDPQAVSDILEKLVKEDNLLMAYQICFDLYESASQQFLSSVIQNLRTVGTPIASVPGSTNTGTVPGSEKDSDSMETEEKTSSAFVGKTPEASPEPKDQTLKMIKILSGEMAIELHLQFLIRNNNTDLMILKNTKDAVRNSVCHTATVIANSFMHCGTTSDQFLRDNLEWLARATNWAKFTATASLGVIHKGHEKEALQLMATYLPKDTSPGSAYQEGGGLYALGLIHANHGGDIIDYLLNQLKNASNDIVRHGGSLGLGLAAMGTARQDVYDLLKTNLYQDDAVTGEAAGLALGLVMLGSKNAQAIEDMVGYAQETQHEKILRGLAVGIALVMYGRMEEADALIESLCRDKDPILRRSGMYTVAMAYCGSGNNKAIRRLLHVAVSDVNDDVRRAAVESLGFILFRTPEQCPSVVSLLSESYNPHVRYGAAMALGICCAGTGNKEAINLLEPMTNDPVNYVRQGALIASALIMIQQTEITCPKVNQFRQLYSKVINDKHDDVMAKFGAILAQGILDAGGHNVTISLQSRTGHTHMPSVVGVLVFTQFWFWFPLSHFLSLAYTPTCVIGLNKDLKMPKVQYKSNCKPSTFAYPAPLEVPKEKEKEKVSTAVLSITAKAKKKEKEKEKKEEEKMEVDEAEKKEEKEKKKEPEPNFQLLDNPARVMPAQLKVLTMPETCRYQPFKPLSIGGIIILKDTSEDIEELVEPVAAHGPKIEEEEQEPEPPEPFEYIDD
UniProt P49720: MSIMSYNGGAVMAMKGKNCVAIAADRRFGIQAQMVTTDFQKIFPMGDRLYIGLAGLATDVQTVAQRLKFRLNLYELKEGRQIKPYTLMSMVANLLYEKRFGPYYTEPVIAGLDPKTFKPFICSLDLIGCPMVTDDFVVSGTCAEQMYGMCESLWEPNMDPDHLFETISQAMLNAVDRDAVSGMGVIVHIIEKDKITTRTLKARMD
UniProt P08575: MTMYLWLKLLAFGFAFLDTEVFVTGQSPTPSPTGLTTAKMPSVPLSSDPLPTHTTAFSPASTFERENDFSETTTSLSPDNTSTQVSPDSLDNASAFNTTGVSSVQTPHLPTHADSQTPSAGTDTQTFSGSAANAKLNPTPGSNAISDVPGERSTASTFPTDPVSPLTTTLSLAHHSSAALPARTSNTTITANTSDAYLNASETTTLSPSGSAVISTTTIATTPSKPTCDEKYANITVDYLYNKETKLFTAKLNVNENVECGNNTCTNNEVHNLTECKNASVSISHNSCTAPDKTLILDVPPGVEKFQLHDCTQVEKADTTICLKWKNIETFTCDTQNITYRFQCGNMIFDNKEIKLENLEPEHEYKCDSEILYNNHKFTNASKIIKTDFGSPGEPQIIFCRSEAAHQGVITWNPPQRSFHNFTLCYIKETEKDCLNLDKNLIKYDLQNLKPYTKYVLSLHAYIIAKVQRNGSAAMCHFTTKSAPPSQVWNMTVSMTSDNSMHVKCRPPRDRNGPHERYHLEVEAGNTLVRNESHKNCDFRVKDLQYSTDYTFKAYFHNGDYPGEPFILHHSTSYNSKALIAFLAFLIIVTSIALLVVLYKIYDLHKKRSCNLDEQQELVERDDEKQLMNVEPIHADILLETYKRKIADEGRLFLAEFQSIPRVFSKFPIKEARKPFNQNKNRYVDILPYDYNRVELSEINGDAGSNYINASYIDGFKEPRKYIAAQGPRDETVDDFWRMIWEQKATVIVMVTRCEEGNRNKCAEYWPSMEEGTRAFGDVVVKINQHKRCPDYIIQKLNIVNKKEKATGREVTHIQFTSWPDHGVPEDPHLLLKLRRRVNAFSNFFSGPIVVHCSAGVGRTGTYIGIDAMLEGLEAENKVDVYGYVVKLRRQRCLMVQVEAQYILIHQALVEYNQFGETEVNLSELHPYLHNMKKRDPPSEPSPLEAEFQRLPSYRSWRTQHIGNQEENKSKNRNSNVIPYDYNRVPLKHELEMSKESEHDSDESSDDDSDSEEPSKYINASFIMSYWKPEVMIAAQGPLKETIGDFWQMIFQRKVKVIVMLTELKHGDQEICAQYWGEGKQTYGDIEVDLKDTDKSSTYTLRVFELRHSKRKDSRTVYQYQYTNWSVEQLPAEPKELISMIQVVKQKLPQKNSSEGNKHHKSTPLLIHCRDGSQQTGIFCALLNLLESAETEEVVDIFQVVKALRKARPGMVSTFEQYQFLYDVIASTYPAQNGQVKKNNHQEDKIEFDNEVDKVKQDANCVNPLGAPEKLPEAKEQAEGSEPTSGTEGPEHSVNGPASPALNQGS
UniProt P25789: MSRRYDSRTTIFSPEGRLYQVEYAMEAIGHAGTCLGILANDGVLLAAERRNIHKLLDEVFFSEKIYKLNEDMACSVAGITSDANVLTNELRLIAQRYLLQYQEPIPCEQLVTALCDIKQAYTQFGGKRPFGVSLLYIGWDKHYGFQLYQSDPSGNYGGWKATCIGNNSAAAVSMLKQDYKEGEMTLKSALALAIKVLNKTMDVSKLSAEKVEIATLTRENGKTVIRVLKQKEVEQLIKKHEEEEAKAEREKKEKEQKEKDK
UniProt Q12913: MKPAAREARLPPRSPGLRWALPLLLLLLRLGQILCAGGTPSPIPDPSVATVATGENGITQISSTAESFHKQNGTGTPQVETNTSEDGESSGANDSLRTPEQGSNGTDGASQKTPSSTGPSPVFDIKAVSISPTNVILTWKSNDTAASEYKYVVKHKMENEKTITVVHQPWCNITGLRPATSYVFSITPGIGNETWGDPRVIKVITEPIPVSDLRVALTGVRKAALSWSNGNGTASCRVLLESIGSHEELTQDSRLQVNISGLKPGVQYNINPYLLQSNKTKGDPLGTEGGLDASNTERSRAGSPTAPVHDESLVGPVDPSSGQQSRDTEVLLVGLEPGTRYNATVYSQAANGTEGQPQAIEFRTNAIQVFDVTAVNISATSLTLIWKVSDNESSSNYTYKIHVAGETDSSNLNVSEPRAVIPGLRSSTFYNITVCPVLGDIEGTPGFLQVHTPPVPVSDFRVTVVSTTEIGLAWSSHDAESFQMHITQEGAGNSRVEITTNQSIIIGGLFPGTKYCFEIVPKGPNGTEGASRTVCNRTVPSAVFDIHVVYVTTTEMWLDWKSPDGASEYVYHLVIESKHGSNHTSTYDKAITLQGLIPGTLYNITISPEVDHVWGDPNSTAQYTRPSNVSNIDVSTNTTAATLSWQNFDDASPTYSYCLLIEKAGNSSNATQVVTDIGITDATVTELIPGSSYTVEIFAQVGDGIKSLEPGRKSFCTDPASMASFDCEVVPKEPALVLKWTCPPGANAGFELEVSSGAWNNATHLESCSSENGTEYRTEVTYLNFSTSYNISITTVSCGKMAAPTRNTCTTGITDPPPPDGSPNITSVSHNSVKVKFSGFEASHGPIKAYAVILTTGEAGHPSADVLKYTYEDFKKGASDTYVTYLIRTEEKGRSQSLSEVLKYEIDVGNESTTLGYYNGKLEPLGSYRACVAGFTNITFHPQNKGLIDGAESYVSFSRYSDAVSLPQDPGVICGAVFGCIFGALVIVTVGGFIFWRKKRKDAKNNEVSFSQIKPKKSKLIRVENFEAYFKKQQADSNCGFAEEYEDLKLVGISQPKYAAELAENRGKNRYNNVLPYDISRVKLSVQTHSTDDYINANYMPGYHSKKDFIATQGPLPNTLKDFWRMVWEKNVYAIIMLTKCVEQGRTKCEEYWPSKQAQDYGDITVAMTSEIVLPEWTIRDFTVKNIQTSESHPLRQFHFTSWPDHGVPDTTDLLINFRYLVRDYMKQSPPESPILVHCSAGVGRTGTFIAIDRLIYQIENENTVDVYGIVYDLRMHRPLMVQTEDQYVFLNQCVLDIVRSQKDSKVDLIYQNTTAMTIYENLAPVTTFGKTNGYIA
UniProt O43586: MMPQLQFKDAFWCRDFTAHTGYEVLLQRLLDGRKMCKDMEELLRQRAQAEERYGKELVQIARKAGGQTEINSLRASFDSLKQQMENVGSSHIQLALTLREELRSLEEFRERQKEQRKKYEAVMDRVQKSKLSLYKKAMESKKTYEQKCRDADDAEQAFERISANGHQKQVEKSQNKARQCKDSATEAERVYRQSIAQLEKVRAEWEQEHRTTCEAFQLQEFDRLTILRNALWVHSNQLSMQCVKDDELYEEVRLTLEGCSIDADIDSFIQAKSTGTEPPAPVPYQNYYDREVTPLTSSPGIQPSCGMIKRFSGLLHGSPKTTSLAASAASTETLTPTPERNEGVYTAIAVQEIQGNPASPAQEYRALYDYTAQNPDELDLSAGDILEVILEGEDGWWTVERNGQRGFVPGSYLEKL
UniProt P18031: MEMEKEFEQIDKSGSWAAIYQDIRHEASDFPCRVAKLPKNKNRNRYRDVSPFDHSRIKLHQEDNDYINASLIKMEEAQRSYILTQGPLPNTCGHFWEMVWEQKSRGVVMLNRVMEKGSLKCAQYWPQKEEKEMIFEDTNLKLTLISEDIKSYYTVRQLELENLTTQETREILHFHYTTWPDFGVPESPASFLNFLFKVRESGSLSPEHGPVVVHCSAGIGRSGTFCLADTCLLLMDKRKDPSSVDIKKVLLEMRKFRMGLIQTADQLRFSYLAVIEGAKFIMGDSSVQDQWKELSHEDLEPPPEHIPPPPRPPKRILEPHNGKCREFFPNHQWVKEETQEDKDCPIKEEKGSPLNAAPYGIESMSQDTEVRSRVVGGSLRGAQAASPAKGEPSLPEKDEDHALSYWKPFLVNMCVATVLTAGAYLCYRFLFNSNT
UniProt P35236: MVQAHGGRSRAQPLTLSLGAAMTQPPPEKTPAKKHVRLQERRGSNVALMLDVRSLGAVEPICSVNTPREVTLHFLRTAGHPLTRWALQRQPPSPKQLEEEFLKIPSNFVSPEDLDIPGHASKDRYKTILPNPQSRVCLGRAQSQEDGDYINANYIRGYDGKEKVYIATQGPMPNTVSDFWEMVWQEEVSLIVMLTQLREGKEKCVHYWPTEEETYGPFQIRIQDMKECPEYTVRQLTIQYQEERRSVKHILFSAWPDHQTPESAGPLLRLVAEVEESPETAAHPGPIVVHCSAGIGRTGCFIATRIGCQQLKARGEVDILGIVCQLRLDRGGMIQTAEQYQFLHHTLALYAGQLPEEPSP
UniProt P55036: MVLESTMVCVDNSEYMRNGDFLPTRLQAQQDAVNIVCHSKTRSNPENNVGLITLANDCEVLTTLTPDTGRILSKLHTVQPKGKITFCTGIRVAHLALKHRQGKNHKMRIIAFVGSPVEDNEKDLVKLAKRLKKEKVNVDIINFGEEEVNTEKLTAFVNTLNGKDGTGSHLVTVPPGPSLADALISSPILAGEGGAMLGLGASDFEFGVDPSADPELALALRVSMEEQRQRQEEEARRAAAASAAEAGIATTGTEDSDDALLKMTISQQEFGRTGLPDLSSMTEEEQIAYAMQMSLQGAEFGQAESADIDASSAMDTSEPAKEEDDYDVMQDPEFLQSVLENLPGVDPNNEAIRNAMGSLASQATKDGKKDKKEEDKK
UniProt O14818: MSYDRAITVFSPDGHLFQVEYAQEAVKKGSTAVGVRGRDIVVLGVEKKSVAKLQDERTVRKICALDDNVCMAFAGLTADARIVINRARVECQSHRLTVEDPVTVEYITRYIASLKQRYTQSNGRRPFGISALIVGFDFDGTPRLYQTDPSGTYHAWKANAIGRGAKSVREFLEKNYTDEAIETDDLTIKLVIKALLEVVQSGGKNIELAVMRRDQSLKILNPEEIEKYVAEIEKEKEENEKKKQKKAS
UniProt P43378: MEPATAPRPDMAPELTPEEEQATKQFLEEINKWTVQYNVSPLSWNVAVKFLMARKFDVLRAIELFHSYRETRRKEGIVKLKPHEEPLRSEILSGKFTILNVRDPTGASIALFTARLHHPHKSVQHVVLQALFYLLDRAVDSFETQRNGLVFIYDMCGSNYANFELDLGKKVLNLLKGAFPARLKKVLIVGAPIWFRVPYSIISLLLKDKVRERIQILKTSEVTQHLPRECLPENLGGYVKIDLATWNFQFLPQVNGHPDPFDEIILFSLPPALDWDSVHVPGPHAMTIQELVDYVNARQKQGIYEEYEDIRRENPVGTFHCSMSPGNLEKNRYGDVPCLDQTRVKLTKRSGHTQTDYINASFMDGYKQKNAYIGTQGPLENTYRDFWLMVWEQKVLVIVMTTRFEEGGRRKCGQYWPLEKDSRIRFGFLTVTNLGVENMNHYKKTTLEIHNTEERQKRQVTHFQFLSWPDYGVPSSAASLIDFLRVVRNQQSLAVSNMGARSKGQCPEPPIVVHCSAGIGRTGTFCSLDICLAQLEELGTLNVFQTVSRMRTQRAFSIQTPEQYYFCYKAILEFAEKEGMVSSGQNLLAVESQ

| Target | probe-labelled cysteine peptide fold change |
| --- | --- |
| PTPN23_Q9H3S7_697_TQSTCQAR (UniProt Q9H3S7) | 0.0073 |
| PSME3_P61289_92_LDECEEAFQGTK (UniProt P61289) | -0.11 |
| PSMB5_P28074_161_GMGLSMGTMICGWDK (UniProt P28074) | 0.0566 |
| PSMD1_Q99460_633_TPEQCPSVVSLLSESYNPHVR (UniProt Q99460) | 0.0411 |
| PSMB3_P49720_19_NCVAIAADR (UniProt P49720) | 0.205 |
| PTPRC_P08575_1261_QDANCVNPLGAPEKLPEAK (UniProt P08575) | -0.175 |
| PSMA4_P25789_163_ATCIGNNSAAAVSMLK (UniProt P25789) | -0.152 |
| PTPRC_P08575_853_VNAFSNFFSGPIVVHCSAGVGR (UniProt P08575) | 0.237 |
| PSMD8_P48556_173_CYYFDYK (UniProt P48556) | 0.391 |
| PTCD3_Q96EY7_551_DKHPPELQVAFADCAADIK (UniProt Q96EY7) | -0.153 |
| PTPRJ_Q12913_1294_MHRPLMVQTEDQYVFLNQCVLDIVR (UniProt Q12913) | 0.063 |
| PTBP1_P26599_251_LSLDGQNIYNACCTLR (UniProt P26599) | -0.158 |
| PSMF1_Q92530_17_AGLEVLFASAAPAITCR (UniProt Q92530) | -0.162 |
| PSMC5_P62195_209_AVAHHTDCTFIR (UniProt P62195) | 0.13 |
| PSTPIP1_O43586_148_CRDADDAEQAFER (UniProt O43586) | -0.0494 |
| PTPN1_P18031_226_SGTFCLADTCLLLMDK (UniProt P18031) | -0.0076 |
| PTPN1_P18031_324_CREFFPNHQWVK (UniProt P18031) | -0.209 |
| PSMD9_O00233_216_GLLGCNIIPLQR (UniProt O00233) | -0.0224 |
| PTPRJ_Q12913_1039_QQADSNCGFAEEYEDLK (UniProt Q12913) | 0.0747 |

| Target | probe-labelled cysteine peptide fold change |
| --- | --- |
| PTER_Q96BW5_36_TLTHEHLAMTFDCCYCPPPPCQEAISK (UniProt Q96BW5) | 0.15 |
| PSMA4_P25789_107_YLLQYQEPIPCEQLVTALCDIK (UniProt P25789) | 0.333 |
| PSMC2_P35998_270_ACLIFFDEIDAIGGAR (UniProt P35998) | 0.0698 |
| PTRH2_Q9Y3E5_111_QWEYCGQPK (UniProt Q9Y3E5) | -0.0453 |
| PTPN11_Q06124_318_CNNSKPK (UniProt Q06124) | -0.259 |
| PTPRE_P23469_244_CHQYWPDQGCWTYGNIR (UniProt P23469) | 0.132 |
| PSME4_Q14997_958_TLTVEGCEYK (UniProt Q14997) | 0.0335 |
| PSME4_Q14997_718_QGYTLSCNLLHHLLR (UniProt Q14997) | 0.0481 |
| PSMD12_O00232_109_MVQQCCTYVEEITDLPIK (UniProt O00232) | 0.0201 |
| PTPN7_P35236_324_ARGEVDILGIVCQLR (UniProt P35236) | 0.0606 |
| PSTPIP1_O43586_242_NALWVHSNQLSMQCVK (UniProt O43586) | 0.232 |
| PTPN1_P18031_344_EETQEDKDCPIK (UniProt P18031) | -0.316 |
| PTPRC_P08575_434_DCLNLDK (UniProt P08575) | -0.0373 |
| PSMD4_P55036_58_SNPENNVGLITLANDCEVLTTLTPDTGR (UniProt P55036) | -0.0408 |
| PTPN12_Q05209_242_TGAICAIDYTWNLLK (UniProt Q05209) | 0.0567 |
| PSMA7_O14818_63+70_ICALDDNVCMAFAGLTADAR (UniProt O14818) | -0.148 |
| PTPN9_P43378_338_YGDVPCLDQTR (UniProt P43378) | -0.123 |
| PSMD1_Q99460_112_QCVENADLPEGEK (UniProt Q99460) | 0.0605 |
| PTPN12_Q05209_724_CDHPAGGIHYEMCIECPPTFSDK (UniProt Q05209) | 0.242 |

Another view of some results above.
Target	probe-labelled cysteine peptide fold change
PTPN7_P35236_324_ARGEVDILGIVCQLR (UniProt P35236)	0.0606
PSTPIP1_O43586_242_NALWVHSNQLSMQCVK (UniProt O43586)	0.232
PTPN1_P18031_344_EETQEDKDCPIK (UniProt P18031)	-0.316
PTPRC_P08575_434_DCLNLDK (UniProt P08575)	-0.0373
PSMD4_P55036_58_SNPENNVGLITLANDCEVLTTLTPDTGR (UniProt P55036)	-0.0408
PTPN12_Q05209_242_TGAICAIDYTWNLLK (UniProt Q05209)	0.0567
PSMA7_O14818_63+70_ICALDDNVCMAFAGLTADAR (UniProt O14818)	-0.148
PTPN9_P43378_338_YGDVPCLDQTR (UniProt P43378)	-0.123
PSMD1_Q99460_112_QCVENADLPEGEK (UniProt Q99460)	0.0605
